Test results as given in US20200247889A1.
No constants are given. Whether binding was seen depends on the method and setting. Some entries that bind do so weakly or less than the wild type.

Target: T1, mouse TREM1 (mouse) (UniProt Q9JKE2)
T1 sequence (looked up): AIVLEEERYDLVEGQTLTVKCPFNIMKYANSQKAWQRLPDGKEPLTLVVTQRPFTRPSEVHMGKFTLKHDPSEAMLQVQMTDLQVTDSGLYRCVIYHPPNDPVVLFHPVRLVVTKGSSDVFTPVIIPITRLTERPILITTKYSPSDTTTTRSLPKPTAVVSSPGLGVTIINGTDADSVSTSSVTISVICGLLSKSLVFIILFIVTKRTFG
Test: in vivo receptor occupancy, flow cytometry of tumor cells

binding: binds
B1: Pi-9069s (antibody, human IgG1, kappa, V domains shown)
VH: EVQLVESGGGLVQPGGSLRLSCAASGFDLYSSYIHWVRQAPGKGLEWVASIYPSYGYTYYADSVKGRFTISADTSKNTAYLQMNSLRAEDTAVYYCARSHSYVHGAMDYWGQGTLVTVSS
VL: DIQMTQSPSSLSASVGDRVTITCRASQSVSSAVAWYQQKPGKAPKLLIYSASSLYSGVPSRFSGSRSGTDFTLTISSLQPEDFATYYCQQYWWVPAAPITFGQGTKVEIKR
